Reference: publication PMC6297230, “Structural basis of meiotic telomere attachment to the nuclear envelope by MAJIN-TERB2-TERB1” (Nature Communications, 2018)

Tests used:
[1] = tested on: TRF1 full length + MAJIN Core + TERB2 full length + TERB1 TRFB; experiment: EMSA supershift; settings: complex recruited to DNA by full-length TRF1; EMSA: 20 mM Tris pH 8.0, 250 mM KCl, 1 h at 4 °C, 3% glycerol, 0.5% agarose in 0.5x TBE; 25 nM FAM-DNA for Kd (protein as oligomer), 0.3 uM DNA for display; recombinant protein
[2] = tested on: MAJIN Core + TERB2 full length + TERB1 T2B; experiment: EMSA; settings: plus TRF1 TRFH, not inhibited (inhibition needs TRF1-binding region of TERB1); EMSA: 20 mM Tris pH 8.0, 250 mM KCl, 1 h at 4 °C, 3% glycerol, 0.5% agarose in 0.5x TBE; 25 nM FAM-DNA for Kd (protein as oligomer), 0.3 uM DNA for display; recombinant protein
[3] = tested on: MAJIN Core+BP1 + TERB2 full length + TERB1 TRFB; experiment: EMSA; settings: plus TRF1 TRFH, inhibition partly compensated by BP1; EMSA: 20 mM Tris pH 8.0, 250 mM KCl, 1 h at 4 °C, 3% glycerol, 0.5% agarose in 0.5x TBE; 25 nM FAM-DNA for Kd (protein as oligomer), 0.3 uM DNA for display; recombinant protein
[4] = tested on: MAJIN Core + TERB2 full length + TERB1 TRFB; experiment: EMSA; settings: plus TRF1 TRFH, binding inhibited; EMSA: 20 mM Tris pH 8.0, 250 mM KCl, 1 h at 4 °C, 3% glycerol, 0.5% agarose in 0.5x TBE; 25 nM FAM-DNA for Kd (protein as oligomer), 0.3 uM DNA for display; recombinant protein
[5] = tested on: MAJIN Core F73E Y75E + TERB2 C; experiment: EMSA; settings: diminished vs WT; EMSA: 20 mM Tris pH 8.0, 250 mM KCl, 1 h at 4 °C, 3% glycerol, 0.5% agarose in 0.5x TBE; 25 nM FAM-DNA for Kd (protein as oligomer), 0.3 uM DNA for display; recombinant protein; protein details: tags removed (TEV),tags removed (TEV); label: 5' …
[6] = tested on: MAJIN Core basic surface mutant + TERB2 C; experiment: EMSA; settings: complete inhibition of DNA-binding; EMSA: 20 mM Tris pH 8.0, 250 mM KCl, 1 h at 4 °C, 3% glycerol, 0.5% agarose in 0.5x TBE; 25 nM FAM-DNA for Kd (protein as oligomer), 0.3 uM DNA for display; recombinant protein; protein details: tags removed (TEV),tags removed (TEV); label: 5' …
MAJIN Core + TERB2 C-Tr = experiment: EMSA; settings: TERB2 214-220 stated essential for DNA-binding; EMSA: 20 mM Tris pH 8.0, 250 mM KCl, 1 h at 4 °C, 3% glycerol, 0.5% agarose in 0.5x TBE; 25 nM FAM-DNA for Kd (protein as oligomer), 0.3 uM DNA for display; recombinant protein; protein details: tags removed (TEV),tags removed (TEV); label: 5' …

Question: Does “GCGAACACCCTGCATCGTCCGACCGGCTCTACAGGTTCCGGCCTGTATTTCTCTTCC (double strand) [Random dsDNA (57 bp)]” bind [1]?
Answer: binds

Question: Does “GCGAACACCCTGCATCGTCCGACCGGCTCTACAGGTTCCGGCCTGTATTTCTCTTCC (double strand) [Random dsDNA (57 bp)]” bind [2]?
Answer: binds

Question: Does “GCGAACACCCTGCATCGTCCGACCGGCTCTACAGGTTCCGGCCTGTATTTCTCTTCC (double strand) [Random dsDNA (57 bp)]” bind [3]?
Answer: binds

Question: Does “GCGAACACCCTGCATCGTCCGACCGGCTCTACAGGTTCCGGCCTGTATTTCTCTTCC (double strand) [Random dsDNA (57 bp)]” bind [4]?
Answer: binds more weakly

Question: Does “TTCCAGGGTTCCATGGAGATAAAGGTCAATAAATTAGAGTTAGAACTAGAAAGTGCCAAACAGAAATTTGGAGAAATCACAGACACCTATCAGAAAGAAATTGAGGACAAAAAGATATCAGAATAATAACCATGGATATCGAATT (double strand) [FAM random dsDNA (145 bp)]” bind [5]?
Answer: binds more weakly

Question: Does “TTCCAGGGTTCCATGGAGATAAAGGTCAATAAATTAGAGTTAGAACTAGAAAGTGCCAAACAGAAATTTGGAGAAATCACAGACACCTATCAGAAAGAAATTGAGGACAAAAAGATATCAGAATAATAACCATGGATATCGAATT (double strand) [FAM random dsDNA (145 bp)]” bind [6]?
Answer: no binding

Question: Does “TTCCAGGGTTCCATGGAGATAAAGGTCAATAAATTAGAGTTAGAACTAGAAAGTGCCAAACAGAAATTTGGAGAAATCACAGACACCTATCAGAAAGAAATTGAGGACAAAAAGATATCAGAATAATAACCATGGATATCGAATT (double strand) [FAM random dsDNA (145 bp)]” bind (MAJIN Core + TERB2 C-Tr)?
Answer: no binding

The exact form of at least one protein or probe is not confirmed. For some of these results: Negatives hold for the conditions tested. For some of these results: A weaker result is weaker than the reference pair of the same experiment. For some of these results: At least one verdict rests on a figure or table, not on a statement of the authors.
